Assay results published in paper PMC11589570, “Critical assessment of LC3/GABARAP ligands used for degrader development and ligandability of LC3/GABARAP binding pockets” (Nature Communications, 2024).
Values joined by “and” are separate entries in the source; they are usually repeats but may differ in a detail not shown here. Equal values may be shown once. This continues a long series; more values of the same kind are listed elsewhere.

System: RPE1 cells
Test: Cell growth assay (IncuCyte confluence over 72 h)
Type: cell-based
Procedure: Cell growth assay: Cell confluence (phase) from RPE1 (hTERT RPE-1, ATCC CLR_4000) or U2OS (ATCC, HTB-96) cell lines were monitored over time with the IncuCyte S3 (Sartiorius, Germany) in 384-well plates in 50 ul DMEM media, supplemented with 10% Fetal Bovine Serum (FBS) 1% penicillin/Streptomycin and incubated 24 h before treatment. Experiment was performed as described in Cano-Franco et al.. 50 μl of media containing either 2× final concentration of indicated compounds in or control compounds (final conc.: 0.1% DMSO, 250 nM Torin1, 200 ng/mL Bafilomycin) were added and images were taken every two hours over 72 h. Cell confluence is represented as % of area covered by cells. Each data point represents the average ratio or confluence obtained from three individual wells of the plate.

`O=C1Nc2ccc(Br)cc2C1=Cc1cc(O)c(O)c(Br)c1` [compound 1] was tested. Which RPE1 cell growth (500 nM, time 22 h, listed as AN1) did it give?
Its RPE1 cell growth is 56 and 30 and 36.

And the RPE1 cell growth (500 nM, time 24 h, listed as AN1)?
Its RPE1 cell growth is 63 and 32 and 38.

What about the RPE1 cell growth (500 nM, time 26 h, listed as AN1) of the same molecule?
The RPE1 cell growth was 66 and 35 and 41.

And the RPE1 cell growth (500 nM, time 28 h, listed as AN1)?
The RPE1 cell growth was 70 and 38 and 41.

And the RPE1 cell growth (500 nM, time 30 h, listed as AN1)?
The RPE1 cell growth was 76 and 41 and 46.

And the RPE1 cell growth (500 nM, time 32 h, listed as AN1)?
Its RPE1 cell growth is 81 and 45 and 50.

What about the RPE1 cell growth (500 nM, time 34 h, listed as AN1) of the same molecule?
Its RPE1 cell growth is 83 and 48 and 55.

What about the RPE1 cell growth (500 nM, time 36 h, listed as AN1) of the same molecule?
Its RPE1 cell growth is 87 and 50 and 58.

And the RPE1 cell growth (500 nM, time 38 h, listed as AN1)?
The RPE1 cell growth was 89 and 53 and 62.

And the RPE1 cell growth (500 nM, time 40 h, listed as AN1)?
Its RPE1 cell growth is 92 and 57 and 65.

And the RPE1 cell growth (500 nM, time 42 h, listed as AN1)?
The RPE1 cell growth was 94 and 60 and 70.

And the RPE1 cell growth (500 nM, time 44 h, listed as AN1)?
The RPE1 cell growth was 97 and 65 and 75.

And the RPE1 cell growth (500 nM, time 46 h, listed as AN1)?
Its RPE1 cell growth is 98 and 69 and 79.

And the RPE1 cell growth (500 nM, time 48 h, listed as AN1)?
The RPE1 cell growth was 99 and 73 and 84.

And the RPE1 cell growth (500 nM, time 50 h, listed as AN1)?
The RPE1 cell growth was 99 and 79 and 86.

And the RPE1 cell growth (500 nM, time 52 h, listed as AN1)?
The RPE1 cell growth was 100 and 84 and 90.

And the RPE1 cell growth (500 nM, time 54 h, listed as AN1)?
The RPE1 cell growth was 100 and 89 and 92.

And the RPE1 cell growth (500 nM, time 56 h, listed as AN1)?
The RPE1 cell growth was 100 and 91 and 95.

What about the RPE1 cell growth (500 nM, time 58 h, listed as AN1) of the same molecule?
Its RPE1 cell growth is 100 and 94 and 97.

And the RPE1 cell growth (500 nM, time 60 h, listed as AN1)?
The RPE1 cell growth was 100 and 96 and 98.

And the RPE1 cell growth (500 nM, time 62 h, listed as AN1)?
The RPE1 cell growth was 100 and 97 and 99.

And the RPE1 cell growth (500 nM, time 64 h, listed as AN1)?
The RPE1 cell growth was 100 and 99.

What about the RPE1 cell growth (500 nM, time 66 h) of the same molecule?
The RPE1 cell growth was 100.

And the RPE1 cell growth (500 nM, time 68 h)?
The RPE1 cell growth was 100.

And the RPE1 cell growth (500 nM, time 70 h)?
Its RPE1 cell growth is 100.

And the RPE1 cell growth (500 nM, time 72 h)?
Its RPE1 cell growth is 100.

What about the RPE1 cell growth (1 uM, 0 h, listed as AN1) of the same molecule?
The RPE1 cell growth was 16 and 29 and 20.

What about the RPE1 cell growth (1 uM, 2 h, listed as AN1) of the same molecule?
Its RPE1 cell growth is 18 and 34 and 20.

And the RPE1 cell growth (1 uM, 4 h, listed as AN1)?
Its RPE1 cell growth is 20 and 36 and 21.

And the RPE1 cell growth (1 uM, 6 h, listed as AN1)?
Its RPE1 cell growth is 21 and 40 and 22.

And the RPE1 cell growth (1 uM, 8 h, listed as AN1)?
Its RPE1 cell growth is 23 and 42 and 22.

What about the RPE1 cell growth (1 uM, 20 h, listed as AN1) of the same molecule?
Its RPE1 cell growth is 48 and 35.

And the RPE1 cell growth (1 uM, 22 h, listed as AN1)?
Its RPE1 cell growth is 33 and 54 and 39.

What about the RPE1 cell growth (1 uM, 24 h, listed as AN1) of the same molecule?
The RPE1 cell growth was 35 and 60 and 40.

And the RPE1 cell growth (1 uM, 26 h, listed as AN1)?
Its RPE1 cell growth is 37 and 62 and 44.

What about the RPE1 cell growth (1 uM, 28 h, listed as AN1) of the same molecule?
The RPE1 cell growth was 38 and 67 and 46.

And the RPE1 cell growth (1 uM, 30 h, listed as AN1)?
Its RPE1 cell growth is 41 and 67 and 50.

What about the RPE1 cell growth (1 uM, 32 h, listed as AN1) of the same molecule?
Its RPE1 cell growth is 45 and 75 and 54.

And the RPE1 cell growth (1 uM, 34 h, listed as AN1)?
Its RPE1 cell growth is 49 and 79 and 56.

What about the RPE1 cell growth (1 uM, 36 h, listed as AN1) of the same molecule?
Its RPE1 cell growth is 52 and 81 and 61.

And the RPE1 cell growth (1 uM, 38 h, listed as AN1)?
The RPE1 cell growth was 55 and 84 and 64.

What about the RPE1 cell growth (1 uM, 40 h, listed as AN1) of the same molecule?
Its RPE1 cell growth is 59 and 77 and 69.

And the RPE1 cell growth (1 uM, 42 h, listed as AN1)?
The RPE1 cell growth was 60 and 90 and 72.

And the RPE1 cell growth (1 uM, 44 h, listed as AN1)?
Its RPE1 cell growth is 67 and 93 and 78.

What about the RPE1 cell growth (1 uM, 46 h, listed as AN1) of the same molecule?
Its RPE1 cell growth is 72 and 94 and 82.

What about the RPE1 cell growth (1 uM, 48 h, listed as AN1) of the same molecule?
The RPE1 cell growth was 76 and 97 and 87.

And the RPE1 cell growth (1 uM, 50 h, listed as AN1)?
Its RPE1 cell growth is 81 and 98 and 91.

What about the RPE1 cell growth (1 uM, 52 h, listed as AN1) of the same molecule?
The RPE1 cell growth was 84 and 66 and 95.

And the RPE1 cell growth (1 uM, 54 h, listed as AN1)?
The RPE1 cell growth was 88 and 99 and 97.

And the RPE1 cell growth (1 uM, 56 h, listed as AN1)?
The RPE1 cell growth was 91 and 99 and 98.

And the RPE1 cell growth (1 uM, 58 h, listed as AN1)?
The RPE1 cell growth was 94 and 100 and 99.

And the RPE1 cell growth (1 uM, 60 h, listed as AN1)?
The RPE1 cell growth was 96 and 100.

And the RPE1 cell growth (1 uM, 62 h, listed as AN1)?
Its RPE1 cell growth is 98 and 100.

And the RPE1 cell growth (1 uM, 64 h, listed as AN1)?
The RPE1 cell growth was 98 and 100.

What about the RPE1 cell growth (1 uM, 66 h, listed as AN1) of the same molecule?
The RPE1 cell growth was 99 and 100.

And the RPE1 cell growth (1 uM, 68 h, listed as AN1)?
The RPE1 cell growth was 99 and 100.

What about the RPE1 cell growth (1 uM, 70 h) of the same molecule?
The RPE1 cell growth was 100.

What about the RPE1 cell growth (1 uM, 72 h) of the same molecule?
The RPE1 cell growth was 100.

What about the RPE1 cell growth (1 uM, time 20 h, listed as AN1) of the same molecule?
The RPE1 cell growth was 35 and 45 and 34.

And the RPE1 cell growth (1 uM, time 22 h, listed as AN1)?
The RPE1 cell growth was 38 and 48.

And the RPE1 cell growth (1 uM, time 24 h, listed as AN1)?
Its RPE1 cell growth is 40 and 56 and 39.

And the RPE1 cell growth (1 uM, time 26 h, listed as AN1)?
Its RPE1 cell growth is 42 and 58 and 43.

And the RPE1 cell growth (1 uM, time 28 h, listed as AN1)?
Its RPE1 cell growth is 44 and 63 and 48.

And the RPE1 cell growth (1 uM, time 30 h, listed as AN1)?
The RPE1 cell growth was 47 and 69 and 52.

And the RPE1 cell growth (1 uM, time 32 h, listed as AN1)?
Its RPE1 cell growth is 52 and 71 and 55.

What about the RPE1 cell growth (1 uM, time 34 h, listed as AN1) of the same molecule?
Its RPE1 cell growth is 56 and 74 and 59.

And the RPE1 cell growth (1 uM, time 36 h, listed as AN1)?
Its RPE1 cell growth is 58 and 79 and 63.

And the RPE1 cell growth (1 uM, time 38 h, listed as AN1)?
The RPE1 cell growth was 63 and 83 and 67.

And the RPE1 cell growth (1 uM, time 40 h, listed as AN1)?
The RPE1 cell growth was 69 and 87 and 71.

And the RPE1 cell growth (1 uM, time 42 h, listed as AN1)?
Its RPE1 cell growth is 73 and 90 and 74.

What about the RPE1 cell growth (1 uM, time 44 h, listed as AN1) of the same molecule?
Its RPE1 cell growth is 77 and 92 and 81.

And the RPE1 cell growth (1 uM, time 46 h, listed as AN1)?
The RPE1 cell growth was 81 and 94 and 84.

What about the RPE1 cell growth (1 uM, time 48 h, listed as AN1) of the same molecule?
Its RPE1 cell growth is 87 and 97 and 89.

What about the RPE1 cell growth (1 uM, time 50 h, listed as AN1) of the same molecule?
The RPE1 cell growth was 90 and 98 and 93.

And the RPE1 cell growth (1 uM, time 52 h, listed as AN1)?
Its RPE1 cell growth is 93 and 99 and 95.

What about the RPE1 cell growth (1 uM, time 54 h, listed as AN1) of the same molecule?
Its RPE1 cell growth is 95 and 99 and 98.

And the RPE1 cell growth (1 uM, time 56 h, listed as AN1)?
Its RPE1 cell growth is 97 and 99.

And the RPE1 cell growth (1 uM, time 58 h, listed as AN1)?
Its RPE1 cell growth is 99 and 100.

And the RPE1 cell growth (1 uM, time 60 h, listed as AN1)?
The RPE1 cell growth was 99 and 100.

And the RPE1 cell growth (1 uM, time 62 h)?
The RPE1 cell growth was 100.

And the RPE1 cell growth (1 uM, time 64 h)?
The RPE1 cell growth was 100.

And the RPE1 cell growth (1 uM, time 66 h)?
The RPE1 cell growth was 100.

What about the RPE1 cell growth (1 uM, time 68 h) of the same molecule?
The RPE1 cell growth was 100.

What about the RPE1 cell growth (1 uM, time 70 h) of the same molecule?
Its RPE1 cell growth is 100.

What about the RPE1 cell growth (1 uM, time 72 h) of the same molecule?
Its RPE1 cell growth is 100.

And the RPE1 cell growth (3 uM, 0 h, listed as AN1)?
The RPE1 cell growth was 25 and 26 and 19.
